# In the supplement of paper PMC8728848:
# This is one part of the list.
# B1: Epa2 (Candida glabrata) (protein)
# chain: MGSSHHHHHHSSGLVPRGSHMASSKDPTSFPMGCSPQVLKTQPGLAVKLYSYGHPVPGCAYNTYQYPDFPRSGYKKERKLADITGVNGRIDIDLKPNDPCRVLSGNLPSNYNYQNTLTYTNFTMILYGYFQPKVTGYHTFNLEADDLLFMNLGAGNAFDCCRAESTLDNFGNYQSYSIWGTDKATADLTVFLVSGIYYPIRLFYVNRDNNAVLDFSFSTEFNKEIIHDFTSYFFSASDEEQCPGNI
# Experiments:
# Assay in all cases: glycan array binding signal (z-score within array); higher = stronger binding
# Conditions in all cases: glycan notation: IUPAC condensed, linker removed
# [1] = target: GlcNAc(b1-2)[GlcNAc(b1-4)]Man(a1-3)[GlcNAc(b1-4)][GlcNAc(b1-2)Man(a1-6)]Man(b1-4)GlcNAc(b1-4)GlcNAc
# Summary of the method: (§1)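 Glycan array data were curated from 3228 arrays in the Consortium for Functional Glycomics database and kept only where the protein sequence was available. Glycan names were converted to IUPAC-condensed notation, and columns mapping to the same glycan were averaged. The binding signal is a within-array Z-score, averaged across arrays of the same protein sequence at different concentrations or buffers and across linkers. Negative Z-scores can be read as non-binding.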
# [2] = target: GlcNAc(b1-2)[GlcNAc(b1-4)]Man(a1-3)[GlcNAc(b1-4)][GlcNAc(b1-2)[GlcNAc(b1-6)]Man(a1-6)]Man(b1-4)GlcNAc(b1-4)GlcNAc
# Summary of the method: as §1
# [3] = target: GlcNAc(b1-2)[GlcNAc(b1-4)]Man(a1-3)[GlcNAc(b1-4)][GlcNAc(b1-2)[GlcNAc(b1-6)]Man(a1-6)]Man(b1-4)GlcNAc(b1-4)[Fuc(a1-6)]GlcNAc
# Summary of the method: as §1
# [4] = target: GlcNAc(b1-2)[GlcNAc(b1-6)]Man(a1-6)[GlcNAc(b1-2)Man(a1-3)]Man(b1-4)GlcNAc(b1-4)GlcNAc
# Summary of the method: as §1
# [5] = target: GlcNAc(b1-2)[GlcNAc(b1-6)]Man(a1-6)[GlcNAc(b1-2)Man(a1-3)]Man(b1-4)GlcNAc(b1-4)[Fuc(a1-6)]GlcNAc
# Summary of the method: as §1
# [6] = target: GlcNAc(b1-2)[GlcNAc(b1-6)]Man(a1-6)[GlcNAc(b1-4)][GlcNAc(b1-2)Man(a1-3)]Man(b1-4)GlcNAc(b1-4)GlcNAc
# Summary of the method: as §1
# GlcNAc(b1-3)Fuc = target: GlcNAc(b1-3)Fuc
# Summary of the method: as §1
# GlcNAc(b1-3)Gal = target: GlcNAc(b1-3)Gal
# Summary of the method: as §1
# [7] = target: GlcNAc(b1-3)Gal(b1-3)GalNAc
# Summary of the method: as §1
# GlcNAc(b1-3)Gal(b1-4)Glc = target: GlcNAc(b1-3)Gal(b1-4)Glc
# Summary of the method: as §1
# [8] = target: GlcNAc(b1-3)Gal(b1-4)GlcNAc
# Summary of the method: as §1
# [9] = target: GlcNAc(b1-3)Gal(b1-4)GlcNAc(b1-2)Man(a1-3)[GlcNAc(b1-3)Gal(b1-4)GlcNAc(b1-2)Man(a1-6)]Man(b1-4)GlcNAc(b1-4)GlcNAc
# Summary of the method: as §1
# [10] = target: GlcNAc(b1-3)Gal(b1-4)GlcNAc(b1-2)Man(a1-3)[GlcNAc(b1-3)Gal(b1-4)GlcNAc(b1-2)Man(a1-6)]Man(b1-4)GlcNAc(b1-4)[Fuc(a1-6)]GlcNAc
# Summary of the method: as §1
# [11] = target: GlcNAc(b1-3)Gal(b1-4)GlcNAc(b1-2)[GlcNAc(b1-3)Gal(b1-4)GlcNAc(b1-6)]Man(a1-6)[GlcNAc(b1-3)Gal(b1-4)GlcNAc(b1-2)Man(a1-3)]Man(b1-4)GlcNAc(b1-4)GlcNAc
# Summary of the method: as §1
# [12] = target: GlcNAc(b1-3)Gal(b1-4)GlcNAc(b1-3)Gal(b1-4)GlcNAc
# Summary of the method: as §1
# [13] = target: GlcNAc(b1-3)Gal(b1-4)GlcNAc(b1-3)Gal(b1-4)GlcNAc(b1-2)Man(a1-3)[GlcNAc(b1-3)Gal(b1-4)GlcNAc(b1-3)Gal(b1-4)GlcNAc(b1-2)Man(a1-6)]Man(b1-4)GlcNAc(b1-4)GlcNAc
# Summary of the method: as §1
# [14] = target: GlcNAc(b1-3)Gal(b1-4)GlcNAc(b1-3)Gal(b1-4)GlcNAc(b1-2)Man(a1-3)[GlcNAc(b1-3)Gal(b1-4)GlcNAc(b1-3)Gal(b1-4)GlcNAc(b1-2)Man(a1-6)]Man(b1-4)GlcNAc(b1-4)[Fuc(a1-6)]GlcNAc
# Summary of the method: as §1
# [15] = target: GlcNAc(b1-3)Gal(b1-4)GlcNAc(b1-3)Gal(b1-4)GlcNAc(b1-2)[GlcNAc(b1-3)Gal(b1-4)GlcNAc(b1-3)Gal(b1-4)GlcNAc(b1-6)]Man(a1-6)[GlcNAc(b1-3)Gal(b1-4)GlcNAc(b1-3)Gal(b1-4)GlcNAc(b1-2)Man(a1-3)]Man(b1-4)GlcNAc(b1-4)[Fuc(a1-6)]GlcNAc
# Summary of the method: as §1
# [16] = target: GlcNAc(b1-3)Gal(b1-4)GlcNAc(b1-3)Gal(b1-4)GlcNAc(b1-3)Gal(b1-4)GlcNAc(b1-2)Man(a1-3)[GlcNAc(b1-3)Gal(b1-4)GlcNAc(b1-3)Gal(b1-4)GlcNAc(b1-3)Gal(b1-4)GlcNAc(b1-2)Man(a1-6)]Man(b1-4)GlcNAc(b1-4)GlcNAc
# Summary of the method: as §1
# [17] = target: GlcNAc(b1-3)Gal(b1-4)GlcNAc(b1-3)Gal(b1-4)GlcNAc(b1-3)Gal(b1-4)GlcNAc(b1-2)Man(a1-3)[GlcNAc(b1-3)Gal(b1-4)GlcNAc(b1-3)Gal(b1-4)GlcNAc(b1-3)Gal(b1-4)GlcNAc(b1-2)Man(a1-6)]Man(b1-4)GlcNAc(b1-4)[Fuc(a1-6)]GlcNAc
# Summary of the method: as §1
# [18] = target: GlcNAc(b1-3)Gal(b1-4)GlcNAc(b1-3)Gal(b1-4)GlcNAc(b1-3)Gal(b1-4)GlcNAc(b1-2)[GlcNAc(b1-3)Gal(b1-4)GlcNAc(b1-3)Gal(b1-4)GlcNAc(b1-3)Gal(b1-4)GlcNAc(b1-6)]Man(a1-6)[GlcNAc(b1-3)Gal(b1-4)GlcNAc(b1-3)Gal(b1-4)GlcNAc(b1-3)Gal(b1-4)GlcNAc(b1-2)Man(a1-3)]Man(b1-4)GlcNAc(b1-4)[Fuc(a1-6)]GlcNAc
# Summary of the method: as §1
# [19] = target: GlcNAc(b1-3)Gal(b1-4)GlcNAc(b1-3)Gal(b1-4)GlcNAc(b1-3)Gal(b1-4)GlcNAc(b1-3)Gal(b1-4)GlcNAc(b1-2)Man(a1-3)[GlcNAc(b1-3)Gal(b1-4)GlcNAc(b1-3)Gal(b1-4)GlcNAc(b1-3)Gal(b1-4)GlcNAc(b1-3)Gal(b1-4)GlcNAc(b1-2)Man(a1-6)]Man(b1-4)GlcNAc(b1-4)GlcNAc
# Summary of the method: as §1
# [20] = target: GlcNAc(b1-3)Gal(b1-4)GlcNAc(b1-3)Gal(b1-4)GlcNAc(b1-3)Gal(b1-4)GlcNAc(b1-3)Gal(b1-4)GlcNAc(b1-2)Man(a1-3)[GlcNAc(b1-3)Gal(b1-4)GlcNAc(b1-3)Gal(b1-4)GlcNAc(b1-3)Gal(b1-4)GlcNAc(b1-3)Gal(b1-4)GlcNAc(b1-2)Man(a1-6)]Man(b1-4)GlcNAc(b1-4)[Fuc(a1-6)]GlcNAc
# Summary of the method: as §1
# [21] = target: GlcNAc(b1-3)Gal(b1-4)GlcNAc(b1-3)Gal(b1-4)GlcNAc(b1-3)Gal(b1-4)GlcNAc(b1-3)Gal(b1-4)GlcNAc(b1-2)[GlcNAc(b1-3)Gal(b1-4)GlcNAc(b1-3)Gal(b1-4)GlcNAc(b1-3)Gal(b1-4)GlcNAc(b1-3)Gal(b1-4)GlcNAc(b1-6)]Man(a1-6)[GlcNAc(b1-3)Gal(b1-4)GlcNAc(b1-3)Gal(b1-4)GlcNAc(b1-3)Gal(b1-4)GlcNAc(b1-3)Gal(b1-4)GlcNAc(b1-2)Man(a1-3)]Man(b1-4)GlcNAc(b1-4)[Fuc(a1-6)]GlcNAc
# Summary of the method: as §1
# [22] = target: GlcNAc(b1-3)Gal(b1-4)GlcNAc(b1-3)Gal(b1-4)GlcNAc(b1-3)GalNAc
# Summary of the method: as §1
# [23] = target: GlcNAc(b1-3)Gal(b1-4)GlcNAc(b1-3)GalNAc
# Summary of the method: as §1
# [24] = target: GlcNAc(b1-3)Gal(b1-4)GlcNAc(b1-3)[GlcNAc(b1-3)Gal(b1-4)GlcNAc(b1-3)]GalNAc
# Summary of the method: as §1
# [25] = target: GlcNAc(b1-3)Gal(b1-4)GlcNAc(b1-6)[Gal(b1-3)]GalNAc
# Summary of the method: as §1
# [26] = target: GlcNAc(b1-3)Gal(b1-4)GlcNAc(b1-6)[GlcNAc(b1-3)Gal(b1-3)]GalNAc
# Summary of the method: as §1
# [27] = target: GlcNAc(b1-3)Gal(b1-4)GlcNAc(b1-6)[GlcNAc(b1-3)]Gal(b1-4)GlcNAc
# Summary of the method: as §1
# GlcNAc(b1-3)GalNAc = target: GlcNAc(b1-3)GalNAc
# Summary of the method: as §1
# GlcNAc(b1-3)Man = target: GlcNAc(b1-3)Man
# Summary of the method: as §1
# [28] = target: GlcNAc(b1-3)[GlcNAc(b1-4)][GlcNAc(b1-6)]GlcNAc
# Summary of the method: as §1
# [29] = target: GlcNAc(b1-3)[GlcNAc(b1-6)]Gal(b1-4)GlcNAc
# Summary of the method: as §1
# [30] = target: GlcNAc(b1-3)[GlcNAc(b1-6)]GalNAc
# Summary of the method: as §1
# [31] = target: GlcNAc(b1-4)Gal(b1-4)GlcNAc
# Summary of the method: as §1
# GlcNAc(b1-4)GlcNAc = target: GlcNAc(b1-4)GlcNAc
# Summary of the method: as §1
# [32] = target: GlcNAc(b1-4)GlcNAc(b1-4)GlcNAc
# Summary of the method: as §1
binder,measurement,setting,value
B1,glycan array binding signal (z-score),[1],0.219
same,glycan array binding signal (z-score),[2],-0.068
same,glycan array binding signal (z-score),[3],-0.701
same,glycan array binding signal (z-score),[4],-0.896
same,glycan array binding signal (z-score),[5],0.898
same,glycan array binding signal (z-score),[6],-0.884
same,glycan array binding signal (z-score),GlcNAc(b1-3)Fuc,1.35
same,glycan array binding signal (z-score),GlcNAc(b1-3)Gal,-1.33
same,glycan array binding signal (z-score),[7],0.454
same,glycan array binding signal (z-score),GlcNAc(b1-3)Gal(b1-4)Glc,-0.511
same,glycan array binding signal (z-score),[8],-0.013
same,glycan array binding signal (z-score),[9],0.061
same,glycan array binding signal (z-score),[10],-0.001
same,glycan array binding signal (z-score),[11],-0.033
same,glycan array binding signal (z-score),[12],-0.752
same,glycan array binding signal (z-score),[13],0.623
same,glycan array binding signal (z-score),[14],0.638
same,glycan array binding signal (z-score),[15],0.83
same,glycan array binding signal (z-score),[16],0.277
same,glycan array binding signal (z-score),[17],1.9
same,glycan array binding signal (z-score),[18],1
same,glycan array binding signal (z-score),[19],0.038
same,glycan array binding signal (z-score),[20],1.04
same,glycan array binding signal (z-score),[21],-0.206
same,glycan array binding signal (z-score),[22],0.046
same,glycan array binding signal (z-score),[23],0.491
same,glycan array binding signal (z-score),[24],0.839
same,glycan array binding signal (z-score),[25],1.19
same,glycan array binding signal (z-score),[26],1.15
same,glycan array binding signal (z-score),[27],-0.534
same,glycan array binding signal (z-score),GlcNAc(b1-3)GalNAc,-1.02
same,glycan array binding signal (z-score),GlcNAc(b1-3)Man,0.236
same,glycan array binding signal (z-score),[28],-0.537
same,glycan array binding signal (z-score),[29],0.074
same,glycan array binding signal (z-score),[30],-0.6
same,glycan array binding signal (z-score),[31],-0.26
same,glycan array binding signal (z-score),GlcNAc(b1-4)GlcNAc,0.529
same,glycan array binding signal (z-score),[32],-0.22

# 2 entries from above, tab-delimited:
binder	measurement	setting	value
B1	glycan array binding signal (z-score)	[21]	-0.206
same	glycan array binding signal (z-score)	[22]	0.046
